Measured values taken from ChEMBL document CHEMBL5126609, “Design, Synthesis, and Pharmacological Evaluation of Benzimidazolo-thiazoles as Potent CXCR3 Antagonists with Therapeutic Potential in Autoimmune Diseases: Discovery of ACT-672125” (J Med Chem, 2022).
Values after ≈ are worked out from the molar mass of the structure shown.

Legend:
physchem = details: buffer
[1] = Solubility of the compound in FeSSIF; details: simulated gi fluid
[2] = Lipophilicity, log D of the compound at pH 7.4; details: buffer
[3] = Solubility of the compound in FaSSIF; details: simulated gi fluid

Cc1nc(C)n(CC(=O)N2CCN(c3sc(C(F)(F)F)nc3-c3nc4ccc(-c5noc(C)n5)cc4[nH]3)C[C@H]2C)n1
solubility (physchem): 83 µg/mL (≈ 141 µM) | solubility [1]: 742 µg/mL (≈ 1260 µM) | logD [2]: 3.6 | solubility [3]: 128 µg/mL (≈ 218 µM)
